Laboratory results taken from the supplement of paper PMC10849652.
The other results are listed elsewhere or left out.

Protein sequences, listed by entry. Tags and fused reporters are not part of them. Lines headed by an entry give the natural chain unless they say otherwise; changes in a name come on top.
UniProt O75845: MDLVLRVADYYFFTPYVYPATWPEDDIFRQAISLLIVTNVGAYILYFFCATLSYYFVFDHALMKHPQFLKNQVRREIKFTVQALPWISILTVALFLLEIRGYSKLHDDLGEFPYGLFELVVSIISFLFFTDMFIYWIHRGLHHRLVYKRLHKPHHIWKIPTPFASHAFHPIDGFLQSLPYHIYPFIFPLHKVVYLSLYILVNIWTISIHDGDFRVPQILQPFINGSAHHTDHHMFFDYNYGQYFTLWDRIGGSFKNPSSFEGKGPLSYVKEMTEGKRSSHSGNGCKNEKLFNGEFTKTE
UniProt Q9NSI8: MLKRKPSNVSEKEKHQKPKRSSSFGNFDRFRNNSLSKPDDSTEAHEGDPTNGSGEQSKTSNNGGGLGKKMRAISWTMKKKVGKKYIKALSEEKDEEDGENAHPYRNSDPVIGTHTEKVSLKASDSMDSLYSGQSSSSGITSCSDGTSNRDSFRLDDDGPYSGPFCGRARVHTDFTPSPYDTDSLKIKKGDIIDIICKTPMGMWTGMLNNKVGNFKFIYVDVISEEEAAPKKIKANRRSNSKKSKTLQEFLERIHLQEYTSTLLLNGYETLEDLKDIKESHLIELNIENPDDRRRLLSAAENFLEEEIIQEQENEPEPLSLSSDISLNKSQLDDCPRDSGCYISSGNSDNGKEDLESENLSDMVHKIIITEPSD
UniProt O15027: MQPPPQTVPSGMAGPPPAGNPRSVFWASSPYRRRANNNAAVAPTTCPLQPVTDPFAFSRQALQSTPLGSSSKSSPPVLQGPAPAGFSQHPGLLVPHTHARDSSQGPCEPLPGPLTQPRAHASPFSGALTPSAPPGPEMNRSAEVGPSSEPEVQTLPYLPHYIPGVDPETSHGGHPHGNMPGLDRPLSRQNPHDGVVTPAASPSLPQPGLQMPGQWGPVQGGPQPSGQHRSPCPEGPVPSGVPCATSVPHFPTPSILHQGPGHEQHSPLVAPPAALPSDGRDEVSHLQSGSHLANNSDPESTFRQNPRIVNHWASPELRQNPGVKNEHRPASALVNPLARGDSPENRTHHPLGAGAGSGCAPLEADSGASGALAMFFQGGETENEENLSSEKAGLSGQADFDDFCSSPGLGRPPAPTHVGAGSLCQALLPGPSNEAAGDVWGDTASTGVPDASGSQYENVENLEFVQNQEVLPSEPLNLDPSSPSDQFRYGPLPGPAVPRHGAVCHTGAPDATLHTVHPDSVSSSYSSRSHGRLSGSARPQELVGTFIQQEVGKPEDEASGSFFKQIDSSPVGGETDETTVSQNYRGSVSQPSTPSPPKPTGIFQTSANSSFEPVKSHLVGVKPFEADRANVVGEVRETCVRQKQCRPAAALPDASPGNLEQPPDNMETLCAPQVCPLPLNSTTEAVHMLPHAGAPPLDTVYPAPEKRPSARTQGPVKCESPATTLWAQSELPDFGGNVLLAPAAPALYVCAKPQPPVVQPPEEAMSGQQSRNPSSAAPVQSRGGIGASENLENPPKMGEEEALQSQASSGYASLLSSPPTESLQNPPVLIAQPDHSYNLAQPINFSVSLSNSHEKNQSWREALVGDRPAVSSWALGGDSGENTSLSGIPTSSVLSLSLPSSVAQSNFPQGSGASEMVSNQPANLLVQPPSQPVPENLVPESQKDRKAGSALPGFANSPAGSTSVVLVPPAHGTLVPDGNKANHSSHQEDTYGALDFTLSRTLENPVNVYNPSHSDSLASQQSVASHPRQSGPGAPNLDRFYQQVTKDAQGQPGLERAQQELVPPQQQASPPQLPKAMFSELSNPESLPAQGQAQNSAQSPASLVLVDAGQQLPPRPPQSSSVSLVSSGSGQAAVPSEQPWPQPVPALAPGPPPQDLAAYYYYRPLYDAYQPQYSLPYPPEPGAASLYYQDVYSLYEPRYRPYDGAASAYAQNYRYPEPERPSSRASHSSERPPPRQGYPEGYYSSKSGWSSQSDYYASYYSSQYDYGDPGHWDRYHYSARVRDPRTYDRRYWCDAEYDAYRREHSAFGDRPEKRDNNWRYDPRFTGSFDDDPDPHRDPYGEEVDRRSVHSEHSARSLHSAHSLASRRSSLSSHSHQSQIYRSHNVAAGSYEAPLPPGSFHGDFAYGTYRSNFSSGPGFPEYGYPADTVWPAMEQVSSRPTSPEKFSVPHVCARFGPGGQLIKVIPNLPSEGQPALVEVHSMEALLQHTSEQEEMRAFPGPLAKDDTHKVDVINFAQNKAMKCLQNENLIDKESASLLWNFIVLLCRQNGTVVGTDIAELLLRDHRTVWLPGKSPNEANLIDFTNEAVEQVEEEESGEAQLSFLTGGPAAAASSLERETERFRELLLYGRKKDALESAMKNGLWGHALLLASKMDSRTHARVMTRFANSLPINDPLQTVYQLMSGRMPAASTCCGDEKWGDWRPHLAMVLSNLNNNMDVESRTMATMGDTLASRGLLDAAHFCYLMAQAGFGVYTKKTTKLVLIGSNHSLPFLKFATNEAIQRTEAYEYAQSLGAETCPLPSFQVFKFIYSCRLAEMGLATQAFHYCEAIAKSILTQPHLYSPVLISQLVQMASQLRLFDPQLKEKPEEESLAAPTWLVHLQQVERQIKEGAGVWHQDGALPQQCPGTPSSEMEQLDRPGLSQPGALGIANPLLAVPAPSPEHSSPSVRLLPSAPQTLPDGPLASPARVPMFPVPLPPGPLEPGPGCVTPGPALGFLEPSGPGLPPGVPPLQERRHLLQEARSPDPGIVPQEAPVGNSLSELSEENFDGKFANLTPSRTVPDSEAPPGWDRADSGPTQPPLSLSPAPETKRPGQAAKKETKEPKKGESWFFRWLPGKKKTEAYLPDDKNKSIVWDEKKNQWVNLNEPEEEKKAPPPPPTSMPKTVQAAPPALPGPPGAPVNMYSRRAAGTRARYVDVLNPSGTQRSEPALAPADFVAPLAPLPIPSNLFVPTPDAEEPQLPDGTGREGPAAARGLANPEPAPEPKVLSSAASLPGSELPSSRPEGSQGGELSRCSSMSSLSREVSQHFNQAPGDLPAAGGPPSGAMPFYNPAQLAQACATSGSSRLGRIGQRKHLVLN
UniProt Q99584: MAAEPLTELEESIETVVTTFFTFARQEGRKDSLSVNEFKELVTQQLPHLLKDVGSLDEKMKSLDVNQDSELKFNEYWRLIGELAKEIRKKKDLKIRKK
UniProt Q9NTJ5: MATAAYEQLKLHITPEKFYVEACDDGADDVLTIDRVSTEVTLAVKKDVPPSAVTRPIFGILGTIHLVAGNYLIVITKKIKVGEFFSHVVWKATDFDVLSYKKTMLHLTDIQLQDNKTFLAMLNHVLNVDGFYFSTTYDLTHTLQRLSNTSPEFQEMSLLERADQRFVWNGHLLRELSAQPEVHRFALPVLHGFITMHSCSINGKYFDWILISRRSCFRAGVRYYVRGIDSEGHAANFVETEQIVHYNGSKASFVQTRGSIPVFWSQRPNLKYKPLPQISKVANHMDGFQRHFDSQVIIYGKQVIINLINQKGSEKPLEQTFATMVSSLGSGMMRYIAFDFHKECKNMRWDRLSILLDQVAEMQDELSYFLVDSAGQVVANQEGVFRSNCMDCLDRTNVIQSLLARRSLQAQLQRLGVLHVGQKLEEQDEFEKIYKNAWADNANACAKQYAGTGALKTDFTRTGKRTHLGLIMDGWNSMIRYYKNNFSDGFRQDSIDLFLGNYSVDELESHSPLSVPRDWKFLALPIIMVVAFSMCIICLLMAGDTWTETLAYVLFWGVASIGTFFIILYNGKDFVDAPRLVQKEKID
UniProt Q8NBX0: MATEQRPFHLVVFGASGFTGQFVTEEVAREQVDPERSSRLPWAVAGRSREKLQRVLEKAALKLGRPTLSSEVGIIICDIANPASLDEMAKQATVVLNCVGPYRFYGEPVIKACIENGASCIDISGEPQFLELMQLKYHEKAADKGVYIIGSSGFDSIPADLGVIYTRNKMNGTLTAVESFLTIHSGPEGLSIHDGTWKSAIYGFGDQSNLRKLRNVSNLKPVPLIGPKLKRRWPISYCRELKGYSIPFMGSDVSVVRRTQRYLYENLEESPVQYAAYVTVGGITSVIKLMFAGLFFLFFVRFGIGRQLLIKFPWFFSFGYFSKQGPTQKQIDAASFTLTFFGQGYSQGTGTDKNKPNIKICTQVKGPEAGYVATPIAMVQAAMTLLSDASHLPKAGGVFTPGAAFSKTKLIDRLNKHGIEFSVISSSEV
UniProt Q9BY42: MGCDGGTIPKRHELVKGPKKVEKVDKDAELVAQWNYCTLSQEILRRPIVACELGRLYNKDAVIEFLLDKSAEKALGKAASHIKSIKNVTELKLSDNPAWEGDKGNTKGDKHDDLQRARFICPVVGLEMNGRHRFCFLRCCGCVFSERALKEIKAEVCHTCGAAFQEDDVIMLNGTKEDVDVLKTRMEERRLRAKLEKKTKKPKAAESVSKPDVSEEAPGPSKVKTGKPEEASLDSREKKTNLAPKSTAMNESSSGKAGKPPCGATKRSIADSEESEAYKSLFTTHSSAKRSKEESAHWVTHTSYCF
UniProt Q9Y6B6: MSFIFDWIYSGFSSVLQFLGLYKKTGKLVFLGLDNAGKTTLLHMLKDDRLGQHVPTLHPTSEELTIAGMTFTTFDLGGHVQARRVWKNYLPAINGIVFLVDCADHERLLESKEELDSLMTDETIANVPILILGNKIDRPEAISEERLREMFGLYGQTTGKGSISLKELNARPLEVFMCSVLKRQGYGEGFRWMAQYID
UniProt O95969: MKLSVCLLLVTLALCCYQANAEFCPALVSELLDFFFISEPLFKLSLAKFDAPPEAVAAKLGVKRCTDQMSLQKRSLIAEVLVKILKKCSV
UniProt Q92503: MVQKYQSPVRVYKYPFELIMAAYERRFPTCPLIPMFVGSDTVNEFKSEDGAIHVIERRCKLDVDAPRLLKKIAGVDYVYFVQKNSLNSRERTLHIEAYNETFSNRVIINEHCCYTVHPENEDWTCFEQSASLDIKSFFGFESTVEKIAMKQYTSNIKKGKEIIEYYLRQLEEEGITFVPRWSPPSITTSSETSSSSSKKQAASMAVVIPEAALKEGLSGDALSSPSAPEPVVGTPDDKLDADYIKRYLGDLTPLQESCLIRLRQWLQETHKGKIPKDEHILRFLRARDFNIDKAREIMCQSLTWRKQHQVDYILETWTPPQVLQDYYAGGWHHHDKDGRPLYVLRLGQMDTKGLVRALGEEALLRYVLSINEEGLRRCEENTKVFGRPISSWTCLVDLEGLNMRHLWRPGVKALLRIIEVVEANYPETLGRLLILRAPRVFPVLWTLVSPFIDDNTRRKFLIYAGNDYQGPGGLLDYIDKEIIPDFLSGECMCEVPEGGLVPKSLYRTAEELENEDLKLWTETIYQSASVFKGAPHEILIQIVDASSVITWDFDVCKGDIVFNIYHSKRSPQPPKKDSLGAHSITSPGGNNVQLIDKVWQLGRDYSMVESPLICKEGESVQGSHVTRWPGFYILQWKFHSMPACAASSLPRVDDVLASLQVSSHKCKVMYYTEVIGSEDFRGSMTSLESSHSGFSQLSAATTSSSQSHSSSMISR
UniProt Q7L099: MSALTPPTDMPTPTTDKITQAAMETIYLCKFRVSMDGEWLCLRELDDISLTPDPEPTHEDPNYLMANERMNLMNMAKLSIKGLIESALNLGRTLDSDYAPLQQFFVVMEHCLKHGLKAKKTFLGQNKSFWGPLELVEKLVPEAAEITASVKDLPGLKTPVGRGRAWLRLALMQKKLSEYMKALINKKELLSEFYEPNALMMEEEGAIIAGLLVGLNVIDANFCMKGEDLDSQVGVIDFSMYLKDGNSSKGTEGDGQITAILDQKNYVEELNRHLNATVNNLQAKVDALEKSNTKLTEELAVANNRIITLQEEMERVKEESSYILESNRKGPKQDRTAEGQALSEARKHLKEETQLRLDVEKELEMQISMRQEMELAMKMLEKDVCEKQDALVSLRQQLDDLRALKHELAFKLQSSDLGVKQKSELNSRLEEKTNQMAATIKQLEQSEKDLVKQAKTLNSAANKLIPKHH
UniProt Q8WXD2: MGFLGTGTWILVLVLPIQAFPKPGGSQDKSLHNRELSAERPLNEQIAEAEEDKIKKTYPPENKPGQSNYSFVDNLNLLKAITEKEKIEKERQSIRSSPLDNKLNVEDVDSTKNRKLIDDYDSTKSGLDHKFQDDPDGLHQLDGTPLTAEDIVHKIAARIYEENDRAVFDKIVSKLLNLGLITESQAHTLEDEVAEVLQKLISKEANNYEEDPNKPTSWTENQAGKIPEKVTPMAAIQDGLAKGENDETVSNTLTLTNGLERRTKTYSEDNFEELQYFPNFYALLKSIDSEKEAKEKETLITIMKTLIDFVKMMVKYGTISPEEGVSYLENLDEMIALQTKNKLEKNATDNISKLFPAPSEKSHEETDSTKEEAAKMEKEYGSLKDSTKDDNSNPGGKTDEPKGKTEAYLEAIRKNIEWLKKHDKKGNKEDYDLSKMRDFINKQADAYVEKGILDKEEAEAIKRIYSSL

Experiments:
Assay in all cases: log2 fold change, soluble protein after heating vs DMSO (PISA); higher = thermal stabilisation; K562 cells, 10 uM, 30 min; active = over 0.2 and 3.5 SD of the protein, either way, in both replicates (recomputed)
saracatinib = compound: CN1CCN(CCOc2cc(OC3CCOCC3)c3c(Nc4c(Cl)ccc5c4OCO5)ncnc3c2)CC1 [saracatinib]
Procedure, shortened: (§1)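 For each measurement, 10 μM compound was applied for 30 min to K562 cells at 2×10^6 cells/mL. Aliquots were heated for 3 min across 48°C-58°C, pooled, and extracted in PBS with 0.5% NP-40 at 4°C; the supernatant after 21,000xg for 90 min was soluble protein. This was quantified by TMTpro 16plex LC-MS/MS with channel sums equalised, and thermal stability was reported relative to control samples from duplicates, on a log2 fold-change scale.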

sotrastaurin = compound: CN1CCN(c2nc(C3=C(c4c[nH]c5ccccc45)C(=O)NC3=O)c3ccccc3n2)CC1 [sotrastaurin]
Procedure, shortened: as §1

alvocidib = compound: CN1CC[C@H](c2c(O)cc(O)c3c(=O)cc(-c4ccccc4Cl)oc23)[C@H](O)C1 [alvocidib]
Procedure, shortened: as §1

Tubastatin A = compound: CN1CCc2c(c3ccccc3n2Cc2ccc(C(=O)NO)cc2)C1 [Tubastatin A]
Procedure, shortened: as §1

[1] = compound: CNC(=O)C1=CC=CC=C1NC2=NC(=NC=C2Cl)NC3=C(C=C(C=C3)N4CCOCC4)OC
Procedure, shortened: as §1

defactinib = compound: CNC(=O)c1ccc(Nc2ncc(C(F)(F)F)c(NCc3nccnc3N(C)S(C)(=O)=O)n2)cc1 [defactinib]
Procedure, shortened: as §1

rucaparib = compound: CNCc1ccc(-c2[nH]c3cc(F)cc4c3c2CCNC4=O)cc1 [rucaparib]
Procedure, shortened: as §1

[2] = compound: CNc1nc(-c2ccc3c(N)n[nH]c3c2)cc(N2C[C@@H](C(=O)NC3CCCCC3)CC[C@H]2C)n1
Procedure, shortened: as §1

encorafenib = compound: COC(=O)N[C@@H](C)CNc1nccc(-c2cn(C(C)C)nc2-c2cc(Cl)cc(NS(C)(=O)=O)c2F)n1 [encorafenib]
Procedure, shortened: as §1

[3] = compound: COC(=O)[C@H](CCSC)NC(=O)C1=C(C=C(C=C1)NC[C@H](CS)N)C2=CC=CC=C2
Procedure, shortened: as §1

filanesib = compound: CON(C)C(=O)N1N=C(c2cc(F)ccc2F)S[C@@]1(CCCN)c1ccccc1 [filanesib]
Procedure, shortened: as §1

zotarolimus = compound: CO[C@H]1C[C@@H]2CC[C@@H](C)[C@@](O)(O2)C(=O)C(=O)N2CCCC[C@H]2C(=O)O[C@H]([C@H](C)C[C@@H]2CC[C@H](n3cnnn3)[C@H](OC)C2)CC(=O)[C@H](C)/C=C(\C)[C@@H](O)[C@@H](OC)C(=O)[C@H](C)C[C@H](C)/C=C/C=C/C=C/1C [zotarolimus]
Procedure, shortened: as §1

idasanutlin = compound: COc1cc(C(=O)O)ccc1NC(=O)[C@@H]1N[C@@H](CC(C)(C)C)[C@](C#N)(c2ccc(Cl)cc2F)[C@H]1c1cccc(Cl)c1F [idasanutlin]
Procedure, shortened: as §1

alisertib = compound: COc1cc(Nc2ncc3c(n2)-c2ccc(Cl)cc2C(c2c(F)cccc2OC)=NC3)ccc1C(=O)O [alisertib]
Procedure, shortened: as §1

[4] = compound: COc1cc2nc(-c3cc(F)ccc3O)nc(N[C@@H]3CNC[C@H]3C(C)(C)O)c2cc1OC
Procedure, shortened: as §1

gefitinib = compound: COc1cc2ncnc(Nc3ccc(F)c(Cl)c3)c2cc1OCCCN1CCOCC1 [gefitinib]
Procedure, shortened: as §1

[5] = compound: COc1cccc2cc(-c3nc([C@H]4CC[C@H](C(=O)O)CC4)n4ncnc(N)c34)[nH]c12
Procedure, shortened: as §1

lapatinib = compound: CS(=O)(=O)CCNCc1ccc(-c2ccc3ncnc(Nc4ccc(OCc5cccc(F)c5)c(Cl)c4)c3c2)o1 [lapatinib]
Procedure, shortened: as §1

pictilisib = compound: CS(=O)(=O)N1CCN(Cc2cc3nc(-c4cccc5[nH]ncc45)nc(N4CCOCC4)c3s2)CC1 [pictilisib]
Procedure, shortened: as §1

[6] = compound: COC1=CC=C(C=C1)CN2C=CC3=C2C=C(C=C3)C(=O)NO
Procedure, shortened: as §1

| Target | log2 fold change (saracatinib) | log2 fold change (sotrastaurin) | log2 fold change (alvocidib) | log2 fold change (Tubastatin A) | log2 fold change [1] | log2 fold change (defactinib) | log2 fold change (rucaparib) | log2 fold change [2] | log2 fold change (encorafenib) | log2 fold change [3] | log2 fold change (filanesib) | log2 fold change (zotarolimus) | log2 fold change (idasanutlin) | log2 fold change (alisertib) | log2 fold change [4] | log2 fold change (gefitinib) | log2 fold change [5] | log2 fold change (lapatinib) | log2 fold change (pictilisib) | log2 fold change [6] |
| --- | --- | --- | --- | --- | --- | --- | --- | --- | --- | --- | --- | --- | --- | --- | --- | --- | --- | --- | --- | --- |
| SC5D (UniProt O75845) | inactive: -0.018 | inactive: -0.005 | inactive: -0.001 | inactive: 0.002 | inactive: -0.005 | inactive: -0.009 | inactive: -0.134 | inactive: 0.022 | inactive: -0.038 | inactive: 0.088 | inactive: -0.065 | inactive: -0.07 | inactive: -0.144 | inactive: -0.017 | inactive: 0.011 | inactive: 0.002 | inactive: 0.071 | inactive: -0.046 | inactive: 0.108 | – |
| SAMSN1 isoform 3 (UniProt Q9NSI8) | inactive: -0.023 | inactive: -0.081 | – | inactive: 0.036 | inactive: 0.002 | inactive: -0.051 | inactive: -0.003 | inactive: -0.029 | inactive: 0.046 | inactive: 0.024 | inactive: -0.021 | inactive: 0.034 | inactive: -0.026 | inactive: 0.007 | inactive: -0.001 | inactive: 0.007 | inactive: -0.029 | inactive: -0.009 | inactive: -0.001 | inactive: 0.013 |
| SDAD1 (UniProt Q9NVU7) | inactive: -0.042 | inactive: 0.038 | inactive: 0.069 | – | – | – | inactive: 0.107 | inactive: 0.004 | inactive: 0.116 | – | inactive: -0.074 | inactive: 0.115 | inactive: 0.087 | inactive: 0.002 | – | inactive: 0.287 | inactive: 0.072 | – | inactive: 0.212 | inactive: 0.017 |
| SEC16A isoform 5 (UniProt O15027) | inactive: -0.08 | inactive: -0.049 | – | inactive: 0.052 | inactive: -0.085 | inactive: -0.016 | inactive: 0.22 | inactive: 0.09 | inactive: 0.119 | inactive: -0.018 | inactive: 0.037 | inactive: -0.01 | inactive: -0.021 | inactive: 0 | inactive: 0.007 | inactive: 0.046 | inactive: -0.148 | inactive: 0.017 | inactive: -0.003 | inactive: 0.079 |
| S100A13 (UniProt Q99584) | inactive: 0.04 | inactive: 0.069 | inactive: -0.006 | inactive: 0.031 | inactive: -0.009 | inactive: 0.011 | inactive: -0.032 | inactive: -0.039 | inactive: -0.02 | inactive: 0.008 | inactive: -0.052 | inactive: 0.005 | inactive: -0.066 | inactive: -0.02 | inactive: -0.078 | inactive: -0.027 | inactive: 0.056 | inactive: -0.035 | inactive: 0.039 | inactive: -0.066 |
| S100A6 (UniProt P06703) | inactive: -0.099 | inactive: -0.001 | inactive: 0.019 | inactive: 0.088 | inactive: 0.025 | – | inactive: -0.095 | inactive: -0.046 | inactive: 0.14 | – | inactive: 0.093 | inactive: 0.003 | inactive: -0.04 | inactive: 0.059 | inactive: -0.218 | inactive: -0.016 | inactive: 0.038 | inactive: -0.079 | inactive: 0.344 | inactive: -0.127 |
| SACM1L (UniProt Q9NTJ5) | inactive: 0.004 | inactive: 0.003 | – | inactive: -0.026 | inactive: 0.042 | inactive: -0.08 | inactive: -0.062 | inactive: 0.007 | inactive: 0.034 | inactive: -0.046 | inactive: -0.081 | inactive: 0.029 | inactive: -0.027 | inactive: -0.05 | inactive: -0.039 | inactive: 0.086 | inactive: 0.023 | inactive: 0.028 | inactive: -0.038 | inactive: 0.044 |
| SCCPDH (UniProt Q8NBX0) | inactive: -0.063 | inactive: 0.1 | – | inactive: -0.078 | inactive: 0.206 | inactive: 0.121 | inactive: -0.081 | inactive: 0.183 | inactive: -0.041 | inactive: 0.002 | inactive: 0.139 | inactive: 0.349 | inactive: 0.025 | inactive: -0.058 | inactive: -0.026 | inactive: -0.016 | inactive: 0.076 | inactive: 0.015 | inactive: 0.135 | active: 0.436 |
| SCAMP2 (UniProt H3BUB6) | inactive: -0.149 | inactive: 0.171 | – | inactive: -0.056 | inactive: -0.043 | inactive: 0.088 | inactive: 0.072 | inactive: -0.155 | inactive: -0.311 | inactive: 0.096 | inactive: 0.126 | inactive: -0.217 | inactive: 0.134 | inactive: -0.019 | inactive: 0.319 | inactive: 0.003 | inactive: 0.188 | inactive: -0.329 | – | inactive: -0.27 |
| RTF2 (UniProt Q9BY42) | inactive: -0.021 | inactive: -0.007 | – | inactive: 0.099 | inactive: 0.083 | inactive: -0.151 | inactive: 0.027 | inactive: -0.142 | inactive: 0.058 | inactive: -0.045 | inactive: 0.09 | inactive: 0.03 | inactive: 0.066 | inactive: 0.024 | inactive: 0.036 | inactive: 0.049 | inactive: 0 | inactive: 0.026 | inactive: -0.027 | inactive: -0.021 |
| SAR1B (UniProt Q9Y6B6) | inactive: 0.036 | inactive: -0.023 | inactive: -0.003 | inactive: 0.012 | inactive: 0.051 | inactive: 0.016 | inactive: -0.057 | inactive: -0.048 | inactive: 0.018 | inactive: -0.055 | inactive: -0.09 | inactive: -0.017 | inactive: -0.131 | inactive: -0.03 | inactive: 0.063 | inactive: -0.008 | inactive: 0.043 | inactive: -0.041 | inactive: 0.06 | inactive: -0.035 |
| SCGB1D2 (UniProt O95969) | inactive: -0.094 | inactive: 0 | inactive: -0.738 | inactive: 0.185 | inactive: -0.224 | inactive: -0.043 | inactive: -0.198 | inactive: 0.035 | inactive: -0.017 | inactive: 0.25 | inactive: 0.059 | inactive: -0.037 | inactive: 0.072 | inactive: -0.047 | inactive: -0.098 | inactive: 0.347 | inactive: 0.145 | inactive: -0.084 | – | – |
| SEC14L1 isoform 2 (UniProt Q92503) | inactive: 0.097 | inactive: -0.021 | inactive: -0.019 | inactive: -0.096 | inactive: 0.144 | inactive: 0.149 | inactive: 0.268 | inactive: -0.057 | inactive: -0.038 | inactive: 0 | inactive: 0.04 | inactive: -0.353 | – | – | – | – | – | – | inactive: 0.072 | – |
| RRP9 (UniProt O43818) | inactive: 0.08 | inactive: 0.044 | – | inactive: 0 | inactive: -0.069 | inactive: -0.075 | inactive: 0.019 | inactive: -0.094 | inactive: -0.005 | inactive: 0.042 | inactive: 0.143 | inactive: -0.059 | inactive: 0.171 | inactive: -0.14 | inactive: -0.061 | inactive: 0.027 | inactive: 0.047 | inactive: 0.037 | inactive: -0.04 | inactive: -0.011 |
| RUFY3 isoform 3 (UniProt Q7L099) | inactive: -0.054 | inactive: -0.036 | – | inactive: 0 | inactive: -0.029 | inactive: -0.028 | inactive: 0.105 | inactive: -0.255 | inactive: -0.017 | inactive: -0.059 | inactive: 0.053 | inactive: 0.003 | inactive: -0.108 | inactive: 0.155 | inactive: 0.045 | inactive: 0.08 | inactive: -0.122 | inactive: -0.01 | inactive: 0.018 | inactive: -0.06 |
| SCG3 (UniProt Q8WXD2) | inactive: 0.191 | inactive: 0.038 | – | inactive: 0.021 | inactive: 0.091 | inactive: -0.163 | inactive: 0.046 | inactive: -0.113 | inactive: -0.069 | inactive: 0.062 | inactive: -0.001 | inactive: -0.044 | inactive: -0.056 | inactive: 0.128 | inactive: -0.082 | inactive: 0.089 | inactive: -0.236 | inactive: 0.07 | inactive: -0.086 | inactive: 0.002 |
| SCFD1 (UniProt Q8WVM8) | inactive: -0.058 | inactive: -0.048 | inactive: -0.07 | inactive: 0.001 | inactive: 0.01 | inactive: -0.088 | inactive: 0.064 | inactive: 0.038 | inactive: 0.038 | inactive: -0.024 | inactive: -0.071 | inactive: 0.027 | inactive: -0.145 | inactive: 0.02 | inactive: 0.102 | inactive: 0.021 | inactive: -0.016 | inactive: -0.022 | inactive: 0.015 | inactive: 0.032 |

Whole records, quoted from the list. Order of values: log2 fold change (saracatinib)	log2 fold change (sotrastaurin)	log2 fold change (alvocidib)	log2 fold change (Tubastatin A)	log2 fold change [1]	log2 fold change (defactinib)	log2 fold change (rucaparib)	log2 fold change [2]	log2 fold change (encorafenib)	log2 fold change [3]	log2 fold change (filanesib)	log2 fold change (zotarolimus)	log2 fold change (idasanutlin)	log2 fold change (alisertib)	log2 fold change [4]	log2 fold change (gefitinib)	log2 fold change [5]	log2 fold change (lapatinib)	log2 fold change (pictilisib)	log2 fold change [6]
RRP9 (UniProt O43818) as listed: inactive: 0.08	inactive: 0.044	–	inactive: 0	inactive: -0.069	inactive: -0.075	inactive: 0.019	inactive: -0.094	inactive: -0.005	inactive: 0.042	inactive: 0.143	inactive: -0.059	inactive: 0.171	inactive: -0.14	inactive: -0.061	inactive: 0.027	inactive: 0.047	inactive: 0.037	inactive: -0.04	inactive: -0.011
RUFY3 isoform 3 (UniProt Q7L099) as listed: inactive: -0.054	inactive: -0.036	–	inactive: 0	inactive: -0.029	inactive: -0.028	inactive: 0.105	inactive: -0.255	inactive: -0.017	inactive: -0.059	inactive: 0.053	inactive: 0.003	inactive: -0.108	inactive: 0.155	inactive: 0.045	inactive: 0.08	inactive: -0.122	inactive: -0.01	inactive: 0.018	inactive: -0.06
